From patent publication US11337971B2, “Dopamine D3 receptor selective antagonists/partial agonists and uses thereof” (THE UNITED STATES OF AMERICA, AS REPRESENTED BY THE …, priority 2018, dated 2022)
“Also recorded” adds a separate entry of the source.

Tests used:
[1] = tested on: Male Long-Evans rats; experiment: Naloxone-precipitated conditioned place aversion (CPA) in chronic oxycodone-treated rats; type: in vivo, rat; settings: naloxone 1 mg/kg; for CPP or CPA from conditioning alone in chronically saline-treated rats: compound 15 mg/kg
Method: Naloxone-precipitated CPA was tested in a place-conditioning apparatus (Med Associates, St Albans, Vt.) consisting of two side compartments (21 cm×28 cm) and a central gray connecting area (21 cm×12.5 cm); a sliding door separated each compartment from the connecting area. The two side compartments differed in wall color (black vs white), floor type (stainless steel net vs stainless steel grid), and illumination. Before the experiment started, all the animals were allowed to explore the conditioning apparatus for 15 min (preconditioning).
Six groups (n=8/group) of rats were involved in this test, 3 groups were chronically treated with oxycodone (3 mg/kg, i.p.) and the other 3 with saline (1 ml/kg), twice daily (800 and 1800 h). Four hours following the morning injection on Day 4 and 6, the oxycodone treated rats were challenged with saline and immediately confined in one side compartment of the conditioning box for 30 min, while on Day 5 and 7, they were first pretreated with either vehicle or 1 of 2 doses of compound (±)-29 (5 and 15 mg/kg, i.p.) 3 h after morning oxycodone injection, and 1 h later, challenged with naloxone (1 mg/kg, i.p.). The rats were then immediately confined in the other side compartment for 30 min. The side compartments for saline or naloxone conditioning were counterbalanced in each group. Place conditioning procedures for chronically saline treated groups were the same as for oxycodone treated groups on Day 4 and 6, but on Day 5 and 7, these 3 groups were challenged with either naloxone, vehicle or compound (±)-29 (15 mg/kg) at the same time point assigned for oxycodone treated groups (FIG. 4A). Twenty-four hours after the last conditioning session, the animals were each placed in the same apparatus and allowed to explore the apparatus for an additional 15 min. The time that animals spent in each compartment was recorded. The CPA score was calculated as the time difference (seconds) that animal spent in drug-paired versus saline-paired compartment.

[2] = tested on: Male Long-Evans rats; experiment: Oral sucrose self-administration; type: in vivo, rat

C=CCN1CC[C@]23c4c5ccc(O)c4O[C@H]2C(=O)CC[C@@]3(O)[C@H]1C5 [naloxone, reference compound]
CPP or CPA from conditioning alone in chronically saline-treated rats [1]: neither CPP or CPA | CPA in vehicle-pretreated rats chronically treated with 3 mg/kg oxycodone ([1]; i.p., 2 conditioning sessions): induced a significant CPA

CCc1cc(Cl)c(OC)c(N2CCN(CC(O)CCNC(=O)c3cc4ccccc4[nH]3)CC2)c1 (racemic) [Compound 29, N-(4-(4-(3-chloro-5-ethyl-2-methoxyphenyl)piperazin-1-yl)-3-hydroxybutyl)-1H-indole-2-carboxamide]
CPP or CPA from conditioning alone in chronically saline-treated rats [1]: neither CPP or CPA | sucrose self-administration ([2]; 15-25 mg/kg, i.p.): did not significantly alter sucrose self-administration; also recorded: had no effect on oral sucrose self-administration | time required to reach the maximal sucrose deliveries vs vehicle ([2]; 15-25 mg/kg, i.p.): significantly longer | time to reach the capped number of sucrose deliveries ([2]; most rats pretreated with compound): approximately 1 h
